Data published in paper doi:10.1101/2023.08.04.552067.
No constants are given. Whether binding was seen depends on the method and setting. Binding calls can cover weak binding; strength is not graded here. Tags and fused reporters may be left off the sequences shown.

Experiments:
[1] = biological target: T1, DegU-His6 fusion protein (unphosphorylated) (Bacillus subtilis) (UniProt P13800); assay: native gel or EMSA
T1 sequence: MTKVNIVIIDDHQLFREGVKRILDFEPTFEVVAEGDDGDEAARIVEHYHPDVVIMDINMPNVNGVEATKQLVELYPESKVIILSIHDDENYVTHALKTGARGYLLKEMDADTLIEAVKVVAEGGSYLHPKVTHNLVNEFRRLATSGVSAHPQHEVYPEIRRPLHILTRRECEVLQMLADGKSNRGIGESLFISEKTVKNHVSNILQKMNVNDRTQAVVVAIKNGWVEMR

[2] = biological target: T2, DegU-P (DegU-His6 phosphorylated by DegS-His6 and ATP) (Bacillus subtilis) (UniProt P13800); assay: native gel or EMSA
T2 sequence (chain, phosphorylated by DegS and ATP (residue not printed)): T1 sequence

binding [1]: binds
binding [2]: binds
Substance: GST-SwrA fusion protein (Bacillus subtilis)
